Measured values reported in patent US20060079540A1, “Pde4 and pde3/4 inhibitors for use in the treatment of cachexia” (Altana Pharma AG, priority 2002, published 2006).
At least one compound was matched to its structure with a doubt left.

Assays:
Format in all cases: cell-based, human
[1] = tested on: secretion of IL-1 from LXFA 526 lung adenocarcinoma Xenograft explants; assay: IL-1 secretion from LXFA 526 lung adenocarcinoma xenograft explants (ELISA)
Protocol: (§1) FIG. 1: Effects of Zardaverine (left graph) and Piclamilast (right graph) on the secretion of IL-1 from LXFA 526 lung adenocarcinoma Xenograft explants. Tumor fragments from mice carrying LXFA 526 xenografts were excised and cell suspensions were seeded into 24 Well plates. After seeding of the cells, Zardaverine at concentrations of 100, 3, and 0.1 μM, respectively, and Piclamilast at concentrations of 1, 0.3 and 0.001 μM, respectively were added and supernatants were harvested 24 hours later. IL-1 content of the supernatants was quantitated using R&D Quantikine ELISA kits according to the manufacturer's recommendations.
(§2) To this end primary cultures of tumor cells were derived from cachexia inducing human xenografts grown subcutaneously in nude mice.
(§3) 5 to 10 NMRI nude mice were implanted with tumor fragments derived from the above mentioned Xenografts and grown until the tumors reached approximately 0.5 g, which correlated well with the onset of cachexia. Animals were then sacrificed and tumors were excised. […]
(§4) For the quantitative measurement of IL-1, IL-6, and TNFα, respectively, the supernatants were analyzed using Quantikine ELISA Kits from R&D Systems according to the manufacturer's recommendations.

[2] = tested on: secretion of IL-1 from RXF 393 hypernephroma Xenograft explants; assay: IL-1 secretion from RXF 393 hypernephroma xenograft explants (ELISA)
Protocol: as §1, with “2:” for “1:”, “RXF 393 hypernephroma” for “LXFA 526 lung adenocarcinoma”, “RXF 393” for “LXFA 526”, “100” for “100, 3,”, “0.01” for “0.3”
as §2, §3, §4

[3] = tested on: secretion of TNFα from LXFA 526 lung adenocarcinoma Xenograft explants; assay: TNFα secretion from LXFA 526 lung adenocarcinoma xenograft explants (ELISA); settings: LXFA 526 cells
Protocol: as §1, with “3:” for “1:”, “TNFα” for “IL-1”
as §2, §3, §4

[4] = tested on: secretion of TNFα from LXFE 397 epidermoid adenocarcinoma Xenograft explants; assay: TNFα secretion from LXFE 397 epidermoid adenocarcinoma xenograft explants (ELISA); settings: LXFE 397 model
Protocol: FIG. 4: Effects of Zardaverine (left graph) and Piclamilast (right graph) on the secretion of TNFα from LXFE 397 epidermoid adenocarcinoma Xenograft explants. Tumor fragments from mice carrying LXFE 397 xenografts were excised and cell suspensions were seeded into 24 Well plates. After seeding of the cells, Zardaverine at concentrations of 30, 10, and 3 μM, respectively, and Piclamilast at concentrations of 0.3; 0.1; and 0.03 μM, respectively were added and supernatants were harvested 24 hours later. TNFα content of the supernatants was quantitated using R&D Quantikine ELISA kits according to the manufacturers recommendations.
as §2, §3, §4

With `COc1cc(-c2ccc(=O)[nH]n2)ccc1OC(F)F` [Zardaverine] the “Modulation of IL-1 expression (in words)” value [1] was “able to suppress IL-1 levels”, the “Modulation of IL-1 expression (in words)” value [2] was “able to suppress IL-1 levels” and the “modulation of TNFα levels (in words)” value [3] was “able to inhibit the secretion of TNFα”. The “modulation of TNFα levels (in words)” value [4] was “able to inhibit the secretion of TNFα”.
